Laboratory results as given in patent US4725578A, “Compounds having therapeutic effect and the preparation thereof” (Tobishi Pharmaceutical Co., Ltd., priority 1986, dated 1988).

Each molecule was assayed on P-388 cells (assay: Antineoplastic action against implanted P-388 cells (ip-ip), survival T/C). Conditions: Table 7, P388 (i.P. - i.P.).
Format: in vivo, CDFl mice
Method: To the peritoneal cavity of each group of mice consisting of six CDFl mice per group, 10^6 /0.1 ml of P-388 cells or 10^5 /0.1 ml of L-1210 cells were implanted. […]
In the Table, the symbol T/C % means Treatment/Control %, that is the increase in life when the control is 100. […] This method is used in the screening of U.S. National Cancer Institute.
In Table 7, the symbol "i.P.-i.P." means that the tumor cells are implanted intraperitoneally and the compounds being tested are also administered intraperitoneally. The symbol "TR" is the therapeutic ratio obtained by dividing the dose which provides a maximum T/C value, by the dose which provides a minimum T/C value.
`CCCCCCOc1ccc2cc1Oc1ccc(cc1)CC1C(=O)N(C)C(C2)C(=O)NC(C)C(=O)NC(C)C(=O)N(C)C(Cc2ccc(OC)cc2)C(=O)NC(C)C(=O)N1C` (stereo not shown) [Ex. 2, n-hexylether of the compound TPC-A] was tested, and the “TR (therapeutic ratio: dose giving maximum T/C divided by dose giving minimum T/C)” value was “≈ 100”. In the case of `CCCCCC(=O)Oc1ccc2cc1Oc1ccc(cc1)CC1C(=O)N(C)C(C2)C(=O)NC(C)C(=O)NC(C)C(=O)N(C)C(Cc2ccc(OC)cc2)C(=O)NC(C)C(=O)N1C` (stereo not shown) [Ex. 21, caproate of TPC-A], the “TR (therapeutic ratio: dose giving maximum T/C divided by dose giving minimum T/C)” value is reported as “≈ 200”. For `COc1ccc(CC2C(=O)NC(C)C(=O)N(C)C3Cc4ccc(cc4)Oc4cc(ccc4OC(C)=O)CC(C(=O)NC(C)C(=O)NC(C)C(=O)N2C)N(C)C3=O)cc1` (stereo not shown) [Ex. 22], the “TR (therapeutic ratio: dose giving maximum T/C divided by dose giving minimum T/C)” value was 278. For `COc1ccc(C[C@H]2C(=O)N[C@@H](C)C(=O)N(C)[C@H]3Cc4ccc(cc4)Oc4cc(ccc4OC)C[C@@H](C(=O)N[C@H](C)C(=O)N[C@@H](C)C(=O)N2C)N(C)C3=O)cc1` [Methylether of TPC-A], the “TR (therapeutic ratio: dose giving maximum T/C divided by dose giving minimum T/C)” value was 400.
